For the assay, the system named is L1210 leukemia ip in BDF1 mice, survival T/C. Put plainly: NCI In Vivo Anticancer Drug Screen. Data for tumor model L1210 Leukemia (intraperitoneal) in B6D2F1 (BDF1) mice. Particulars: T/C endpoint: mean survival time, higher T/C = longer survival.
The mark [1] stands for this setting: dose: 75.0 mg/kg/injection, schedule: Q01DX001 (ip), vehicle: saline.
The mark [2] stands for this setting: dose: 150.0 mg/kg/injection, schedule: Q01DX001 (ip), vehicle: saline.
Setting [3] is: dose: 300.0 mg/kg/injection, schedule: Q01DX001 (ip), vehicle: saline.
The mark [4] stands for this setting: dose: 200.0 mg/kg/injection, schedule: Q01DX001 (ip), vehicle: carboxymethylcellulose (CMC).
The mark [5] stands for this setting: dose: 200.0 mg/kg/injection, schedule: Q04DX003 (ip), vehicle: saline.
The mark [6] stands for this setting: dose: 400.0 mg/kg/injection, schedule: Q04DX003 (ip), vehicle: saline.
[7] abbreviates: dose: 400.0 mg/kg/injection, schedule: Q01DX001 (ip), vehicle: saline.

The list does not hold the whole screen: it is rich in T/C values a quarter to a half above the control, in often repeated tests (any T/C) and in doses without a T/C. Further doses and runs are listed elsewhere. T/C gives the treated animals as a percentage of the vehicle group. Some entries give survivors of the animals treated and no T/C: the source holds a T/C of zero for them, seemingly a mark for toxic or unscored doses. Some doses without a T/C left all or most animals alive at the check, yet need not have been tolerated: survival well below the control is almost never listed, so the zero probably covers shortened survival too. Counts of survivors are from the toxicity check (mostly the fifth day) where no day follows; animals may have died later. Schedules are NCI's codes, taken here to give the interval after Q, in days (D) or hours (H), and the number of doses after X. Some schedules carry Z or #; the key to these is not given. Where survival is the endpoint, the PubChem record calls one and a half times the control and up active, and a quarter to a half above the control has no call in these data; cut-offs in other NCI protocols can differ.

On to `NC(N)=N/N=C(/c1ccccc1)c1ccc2ccccc2c1`, for which the survivor count (dose: 240.0 mg/kg/injection, schedule: Q01DX Z (ip), vehicle: methylcellulose (MC)) was 3 of 6; the survivor count (dose: 360.0 mg/kg/injection, schedule: Q01DX Z (ip), vehicle: methylcellulose (MC)) is recorded as 1 of 6; the survivor count (dose: 480.0 mg/kg/injection, schedule: Q01DX Z (ip), vehicle: methylcellulose (MC)) was 0 of 6; the survivor count (dose: 600.0 mg/kg/injection, schedule: Q01DX Z (oral), vehicle: methylcellulose (MC)) is 3 of 6.

Regarding `CCOP(=O)(OCC)Oc1cc(C)c(C#N)c(C)c1`, the survivor count is listed as 2 of 6 under setting [1]; 3 of 6 (dose: 80.0 mg/kg/injection, schedule: Q01DX001 (ip), vehicle: saline); 0 of 6 under setting [2]; 0 of 6 under setting [3].

Take `O=C(CCCCCCCCC(=O)Nc1cccc(C2=NCCN2)c1)Nc1cccc(C2=NCCN2)c1`: the survivor count is recorded as 0 of 6 (dose: 15.0 mg/kg/injection, schedule: Q01DX Z (ip), vehicle: methylcellulose (MC)); 0 of 6 (dose: 30.0 mg/kg/injection, schedule: Q01DX Z (ip), vehicle: methylcellulose (MC)); 0 of 6 (dose: 60.0 mg/kg/injection, schedule: Q01DX Z (ip), vehicle: methylcellulose (MC)).

On to `[O]=[V]([OH])([OH])[OH]`, for which the survivor count is recorded as 1 of 4 (dose: 100.0 mg/kg/injection, schedule: Q01DX001 (ip), vehicle: saline); 0 of 6 (dose: 128.0 mg/kg/injection, schedule: Q01DX015 (ip), vehicle: saline); 0 of 6 (dose: 256.0 mg/kg/injection, schedule: Q01DX015 (ip), vehicle: saline).

In the case of `Cc1ccc(C2=CCCCC2)cc1`, under setting [4], the survivor count is recorded as 2 of 4.

Turning to `COc1cccc2c1C(=O)c1c(O)c3c(c(O)c1C2=O)CC(O)(/C(C)=N/NC(=O)c1ccccc1)CC3OC1CC(N)C(O)C(C)O1` (configuration not stated), the T/C (dose: 50.0 mg/kg/injection, schedule: Q04DX003 (ip), vehicle: water) was 129 % of control; the T/C (dose: 100.0 mg/kg/injection, schedule: Q04DX003 (ip), vehicle: water) is 131 % of control; the T/C (dose: 300.0 mg/kg/injection, schedule: Q04DX003 (ip), vehicle: water) is 134 % of control.

On to `CCS(=O)(=O)c1ccc2nnnn2n1`, for which the survivor count runs as follows: (dose: 50.0 mg/kg/injection, schedule: Q04DX003 (ip), vehicle: saline) 0 of 4; (dose: 100.0 mg/kg/injection, schedule: Q04DX003 (ip), vehicle: saline) 0 of 4; under setting [5], 1 of 4.

Take `CCCCCCCCCC(=O)OCC1OC(=O)C(C)N(C)C(=O)CN(C)C(=O)C2C(=O)CC(C)N2C(=O)C(C(C)C)NC(=O)C1NC(=O)c1c2nc3c(C(=O)NC4C(=O)NC(C(C)C)C(=O)N5C(C)CC(OC(=O)CCCCCCCCC)C5C(=O)N(C)CC(=O)N(C)C(C(C)C)C(=O)OC4C)ccc(C)c3oc-2c(C)c(=O)c1N` (configuration not stated): under “dose: 25.6 mg/kg/injection, schedule: Q01DX001 (ip), vehicle: Klucel (hydroxypropylcellulose) (HPC)”, the survivor count is recorded as 7 of 8.

As to `CC12C3CCC(C3)C1(O)C2S(=O)(=O)N1CCCCC1` (configuration not stated), for the setting “dose: 400.0 mg/kg/injection, schedule: Q01DX009 (ip), vehicle: saline”, the survivor count is recorded as 6 of 6.

`CN1CCCCC1(Cc1ccccc1)Cc1ccccc1`: the survivor count is, setting by setting: (dose: 200.0 mg/kg/injection, schedule: Q01DX009 (ip), vehicle: saline) 3 of 6; under setting [6], 0 of 6.

In the case of `CC(C)=CCC(C#N)(CCN(C)C)c1cccc2ccccc12` (configuration not stated), the survivor count under setting [5] was 2 of 6 and the survivor count under setting [6] was 0 of 6.

For `[N-]=[N+]=Nc1c2ccccc2nc2ccccc12`, the survivor count was 0 of 6 (dose: 10.0 mg/kg/injection, schedule: Q01DX001 (ip), vehicle: saline); 0 of 6 (dose: 20.0 mg/kg/injection, schedule: Q01DX001 (ip), vehicle: saline); 0 of 6 (dose: 40.0 mg/kg/injection, schedule: Q01DX001 (ip), vehicle: saline); 2 of 6 under setting [1]; 2 of 6 under setting [2]; 2 of 6 under setting [3].

Turning to `CC(C)=CCC(CC=C(C)C)c1ccncc1` (tested in a mixture with another compound), the survivor count under setting [7] is recorded as 3 of 6.

Consider `CSc1nc(N)cc(C(N)=O)n1`, for which the survivor count (dose: 200.0 mg/kg/injection, schedule: Q01DX Z (ip), vehicle: methylcellulose (MC)) is recorded as 0 of 6.

On to `COc1cc(NS(C)(=O)=O)ccc1Nc1c2cccc(C)c2nc2c(C)cccc12`, for which the T/C reads like this: (dose: 6.25 mg/kg/injection, schedule: Q01DX009 (ip), vehicle: water) 140 % of control; (dose: 12.5 mg/kg/injection, schedule: Q01DX009 (ip), vehicle: saline) 126 % of control; (dose: 25.0 mg/kg/injection, schedule: Q01DX001 (ip), vehicle: water) 144 % of control; (dose: 50.0 mg/kg/injection, schedule: Q01DX009 (ip), vehicle: water) 125 % of control; (dose: 200.0 mg/kg/injection, schedule: Q01DX001 (ip), vehicle: saline) 127 % of control; under setting [7], 140 % of control. The survivor count (dose: 200.0 mg/kg/injection, schedule: Q01DX009 (ip), vehicle: water) is on record as 10 of 10 and the survivor count (dose: 400.0 mg/kg/injection, schedule: Q01DX009 (ip), vehicle: water) is given as 8 of 10.

In the case of `CN(NC(=O)c1ccccc1)C(=O)c1ccccc1`, where the note is “dose: 200.0 mg/kg/injection, schedule: Q04DX003 (ip), vehicle: Klucel (hydroxypropylcellulose) (HPC)”, the T/C was 126 % of control. Further, the survivor count (dose: 400.0 mg/kg/injection, schedule: Q04DX003 (ip), vehicle: Klucel (hydroxypropylcellulose) (HPC)) was 6 of 6.

For the molecule `CCN=C(c1ccc(NC(=O)c2ccc(C(=O)Nc3ccc(C(=NCC)N(CC)C(=O)OC)cc3)cc2)cc1)N(CC)C(=O)OC`, the T/C was 130 % of control (dose: 3.0 mg/kg/injection, schedule: Q01DX015 (ip), vehicle: methylcellulose (MC)); 148 % of control (dose: 3.75 mg/kg/injection, schedule: Q01DX015 (ip), vehicle: methylcellulose (MC)); 131 % of control (dose: 6.0 mg/kg/injection, schedule: Q01DX015 (ip), vehicle: methylcellulose (MC)). For the same molecule, the survivor count (dose: 12.0 mg/kg/injection, schedule: Q01DX015 (ip), vehicle: methylcellulose (MC)) is on record as 1 of 6; the survivor count (dose: 15.0 mg/kg/injection, schedule: Q01DX015 (ip), vehicle: methylcellulose (MC)) is on record as 0 of 6; the survivor count (dose: 30.0 mg/kg/injection, schedule: Q01DX015 (ip), vehicle: methylcellulose (MC)) was 0 of 6; the survivor count (dose: 62.0 mg/kg/injection, schedule: Q01DX015 (ip), vehicle: methylcellulose (MC)) is 0 of 6; the survivor count (dose: 125.0 mg/kg/injection, schedule: Q01DX015 (ip), vehicle: methylcellulose (MC)) is listed as 0 of 6; the survivor count (dose: 250.0 mg/kg/injection, schedule: Q01DX015 (ip), vehicle: methylcellulose (MC)) is recorded as 0 of 6. Moreover, under “dose: 500.0 mg/kg/injection, schedule: Q01DX015 (ip), vehicle: methylcellulose (MC)”, the survivor count is given as 0 of 6.

As to `CN1C(=O)CC(/C=C\[N+](=O)[O-])c2ccccc21` (configuration not stated), the survivor count under setting [4] is recorded as 2 of 4.

In the case of `COC(=O)N(CCCCN(N=O)C(=O)OC)N=O`, the survivor count (dose: 400.0 mg/kg/injection, schedule: Q04DX002 (ip), vehicle: Klucel (hydroxypropylcellulose) (HPC)) is listed as 3 of 3.

On to `CC(C)=NC(=O)NO.[Cl][Ni][Cl]`, for which the survivor count reads like this: under setting [2], 0 of 6; under setting [3], 0 of 6.

Turning to `CN(C)CCCN=Cc1cc(Cl)ccc1O.CN(C)CCCN=Cc1cc(Cl)ccc1O.[Ni+2]`, the survivor count (dose: 100.0 mg/kg/injection, schedule: Q04DX003 (ip), vehicle: saline with Tween-80) was 3 of 6; the survivor count (dose: 200.0 mg/kg/injection, schedule: Q04DX003 (ip), vehicle: saline with Tween-80) is 1 of 6; the survivor count (dose: 400.0 mg/kg/injection, schedule: Q04DX003 (ip), vehicle: saline with Tween-80) is recorded as 0 of 6.
